# Test results taken from PubChem BioAssay AID504444 (National Center for Advancing Translational Sciences (NCATS), 2011).
# Out of some 360,000 compounds screened, about 7,500 (2.1%) were called active. Inconclusive results, whose numbers are uncertain, are shown with a selection of clear calls. The call rests on the fitted dose curve; in most records, active means well fitted inhibition curve with a large enough effect; inconclusive means small, poorly fitted or top-dose-only effect, or effect the other way; inactive means flat fitted curve, though single readings scatter. Where the call is inconclusive, the potency comes from a doubtful curve fit.
# Assay: Nrf2 qHTS screen for inhibitors; further: nearly all actives have a fitted effect of over 60% in size
# Conditions: A549 ARE-Fluc reporter, luciferase luminescence, 18-24 h; activity change, negative = inhibition: at 46 µM (top of the series)
# Procedure, shortened: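 Two sequential reads on A549 ARE_Fluc cells exposed to compound for 18-24 h: a CellTiter-Fluor fluorescence read for viability, then a luciferase luminescence read for Nrf2/ARE activity.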
# On the % scale 0 is the no-effect control and ±100 the full control effect; potency means the concentration at half of the fitted maximal effect.
SMILES,Potency,"activity change, negative = inhibition"
COc1ccc2oc(C(=O)OCC(=O)N3CCN(S(=O)(=O)c4ccc(C)cc4)CC3)c(C)c2c1,"inconclusive: 32.6 µM [falling, single point]",
O=c1c2cnn(-c3ccccc3)c2nc(-c2cccs2)n1-c1cccc(Cl)c1,"inconclusive: 18.4 µM [falling, single point]",
CCc1sc(C(=O)Nc2ccc(N3CCOCC3)cc2)cc1C,"inconclusive: 18.4 µM [falling, single point]",
CC#CCN(Cc1ccco1)C(=O)C1CCC(=O)N(Cc2ccccc2F)C1 (centres undefined),"inconclusive: 13 µM [activator, partial curve]",
O=C(CSc1nnc2c(n1)[nH]c1ccccc12)Nc1cccc(S(=O)(=O)N2CCOCC2)c1,"inconclusive: 4.61 µM [falling, full curve, poor fit]",
Cc1ccc(CNCc2cc3c(C(C)(C)C)nn(-c4ccccc4)c3[nH]c2=O)cc1,"inconclusive: 18.4 µM [falling, single point]",
O=C(COCc1cc(-c2ccco2)on1)Nc1cccc(Cl)c1Cl,"inconclusive: 25.9 µM [activator, partial curve]",
O=C(Nc1ccc2[nH]c(=O)[nH]c2c1)c1ccc([N+](=O)[O-])o1,,inactive: 18.3%
Cc1ccc(NC(=O)CSc2nc(-c3ccco3)cc(C(F)(F)F)n2)cc1C,"inconclusive: 1.46 µM [falling, full curve, poor fit]",
Cc1ccc(NC(=O)c2nc(-c3ccncc3)no2)c(Cl)c1,"inconclusive: 29.1 µM [activator, single point]",
CC1=C(C(=O)Nc2ccccc2)C(c2cccc([N+](=O)[O-])c2)Nc2nc3ccccc3n21 (centres undefined),"inconclusive: 20.6 µM [falling, single point]",
COc1cc(NC(=O)c2ncn(-c3ccccc3)n2)cc(OC)c1,"inconclusive: 18.4 µM [activator, partial curve]",
COc1ccc(C2=Nn3c(nnc3-c3ccc(OC)cc3)SC2)cc1,"inconclusive: 18.4 µM [falling, partial curve, poor fit]",
O=C1c2ccccc2C(=O)N1CCCCN(C(=O)c1cc([N+](=O)[O-])ccc1Cl)c1ccc(Cl)cc1,"inconclusive: 25.9 µM [falling, partial curve, poor fit]",
CN(CC(=O)Nc1cccc(F)c1)CC(=O)Nc1cccc(S(=O)(=O)N2CCCCC2)c1,"inconclusive: 29.1 µM [falling, single point]",
Cc1nnc(SC/C=C/c2ccccc2)n(N)c1=O,"inconclusive: 20.6 µM [falling, partial curve, poor fit]",
COc1ccc(C2Nc3ccccc3C(=O)N2Cc2ccccc2)cc1COc1ccc(C)cc1 (centres undefined),,inactive: -8.34%
Clc1ccc(CSc2cc3c(nn2)-c2ccccc2CC3)cc1Cl,"inconclusive: 29.1 µM [activator, single point]",
CCc1cccc(NC(=O)CCN2C(=O)c3ccccc3Sc3ncccc32)c1,"inconclusive: 0.0052 µM [activator, full curve, poor fit]",
COc1ccc(CN(C(=O)Cc2coc3ccc(C)cc23)C2CCS(=O)(=O)C2)cc1 (centres undefined),,inactive: -18.5%

# Individual results from the entries so far.
# COc1ccc(CN(C(=O)Cc2coc3ccc(C)cc23)C2CCS(=O)(=O)C2)cc1 (centres undefined) – activity change, negative = inhibition: inactive: -18.5%
# CCc1sc(C(=O)Nc2ccc(N3CCOCC3)cc2)cc1C – Potency: inconclusive: 18.4 µM [falling, single point]

# Next part

SMILES,Potency,"activity change, negative = inhibition"
COc1ccc(/C=N/NS(=O)(=O)c2ccccc2)cc1OC(=O)c1ccc(C)cc1,active: 9.2 µM,
Cc1cc(C(=O)Cn2nnc3ccccc3c2=O)c(C)n1Cc1cccs1,"inconclusive: 0.651 µM [activator, full curve]",
O=C(c1ccc(=O)[nH]n1)N1CCN(S(=O)(=O)c2ccc(C(F)(F)F)cc2)CC1,,inactive: 7.11%
CS(=O)(=O)c1ccc(CNC(=O)[C@]2(C(F)(F)F)C[C@H](CCc3ccccc3)CCCO2)cc1,"inconclusive: 20.6 µM [falling, partial curve, poor fit]",
CC(C)(C)c1ccc(/C=N/N2CCN(c3ccccn3)CC2)cc1,"inconclusive: 10.3 µM [falling, partial curve, poor fit]",
O=C(NCC1CCN(Cc2ccc(F)cc2)CC1)c1cc2ccc3cccnc3c2[nH]1,"inconclusive: 18.4 µM [activator, single point]",
COC(=O)C1CCN(C(=O)/C(C)=C\c2ccccc2)CC1,"inconclusive: 29.1 µM [activator, partial curve, poor fit]",
Cc1ccc(NS(=O)(=O)c2ccc(C(=O)NC3CCN(Cc4ccccc4)CC3)cc2)cc1,active: 5.8 µM,
CCc1cc2c(-c3ccccc3)cc(=O)oc2cc1OC(C)C(C)=O (centres undefined),active: 6.51 µM,
C/C=C1\COC(C(=O)NCc2ccccc2)(C(F)(F)F)C=C1C=C(C)C (centres undefined),inactive,
CN(C(=O)c1cccc(NC(=O)Cc2ccc(NC(=O)C3CCCN(C(=O)C4CCCC4)C3)cc2)c1)C1CCCCC1 (centres undefined),"inconclusive: 23.1 µM [falling, single point]",
Cc1ccc(-n2nc3c(=O)n(C(C)C(=O)NCc4ccc(Cl)cc4)nc(C)c3c2C)cc1 (centres undefined),active: 10.3 µM,
CN(C)C(=O)CN1CCN(Cc2nc(CC3CC3)no2)CC1,"inconclusive: 0.082 µM [activator, full curve, poor fit]",
Cc1ccccc1-n1ncc2c(SCC(=O)NCc3cccs3)ncnc21,"inconclusive: 14.6 µM [falling, partial curve]",
Clc1ccc(Cl)c(-c2nn3c(COc4ccccc4)nnc3s2)c1,"inconclusive: 16.4 µM [falling, partial curve, poor fit]",
CC(OC(=O)c1cc[n+]([O-])cc1)C(=O)Nc1ccc(Cl)cn1 (centres undefined),"inconclusive: 29.1 µM [activator, single point]",
O=C(Nc1ccc(NC(=O)c2cc3ccccc3o2)cc1)c1ccc2c(c1)OCCO2,"inconclusive: 3.66 µM [falling, full curve, poor fit]",
O=C(c1cc(F)cc(F)c1)N1CCC(c2nc(-c3ccc(S(=O)(=O)N4CCCC4)cc3)no2)CC1,"inconclusive: 16.4 µM [falling, partial curve, poor fit]",
COc1cc(/C=N/N2C(=O)C3C4c5ccccc5C(c5ccccc54)C3C2=O)ccc1O (centres undefined),"inconclusive: 29.1 µM [falling, partial curve, poor fit]",
CSCCC(NC(=O)c1ccco1)C(=O)NC1CCC(C)CC1 (centres undefined),"inconclusive: 6.51 µM [activator, full curve]",

SMILES,Potency,"activity change, negative = inhibition"
COc1ccc(OC)c(CCNC(=O)c2cc3c(=O)n(C)c4ccccc4c3n2C)c1,"inconclusive: 18.4 µM [falling, single point]",
O=C(CNC(=O)C1COc2ccccc2O1)N/N=C\c1ccc(Cl)cc1 (centres undefined),"inconclusive: 3.26 µM [falling, single point]",
COC(=O)c1ccccc1NC(=O)C(C)c1ccc([N+](=O)[O-])cc1 (centres undefined),"inconclusive: 20.6 µM [falling, partial curve]",
O=[N+]([O-])c1ccc(-c2nc(Nc3ccc(O)cc3)c3ccccc3n2)cc1,"inconclusive: 32.6 µM [falling, partial curve, poor fit]",
COc1ccccc1N1CCN(S(=O)(=O)c2ccc3c(c2)NC(=O)C(C)S3)CC1 (centres undefined),"inconclusive: 18.4 µM [falling, single point]",
Cc1ccc(-c2nnc(SCC(=O)Nc3ccc4c(c3)oc3ccccc34)n2C)c(Cl)c1,"inconclusive: 18.4 µM [falling, single point]",
Cc1cc(OCC(=O)N(C)C2CCCCC2)ccc1Cl,"inconclusive: 2.06 µM [activator, full curve]",
CCC(=O)N1CCN(c2ccc(Cl)cc2NC(=O)c2ccc(N3CCCC3)c([N+](=O)[O-])c2)CC1,"inconclusive: 14.6 µM [falling, partial curve, poor fit]",
COc1ccccc1NC(=O)CN(c1ccc(C23CC4CC(CC(C4)C2)C3)cc1)S(C)(=O)=O,"inconclusive: 14.6 µM [falling, partial curve, poor fit]",
Cc1ccc(O)c(-c2n[nH]c3c2C(c2ccccc2F)N(Cc2ccco2)C3=O)c1 (centres undefined),"inconclusive: 29.1 µM [falling, single point]",
Cc1onc(-c2ccccc2Cl)c1C(=O)N1CCC(Cc2ccccc2)CC1,"inconclusive: 23.1 µM [falling, single point]",
Cc1cc2[nH]c(=O)c(=O)[nH]c2cc1S(=O)(=O)Nc1cccc(C(F)(F)F)c1,"inconclusive: 29.1 µM [activator, single point]",
CCOc1ccc(NC(=O)Cn2nnc(-c3ccccc3NC(=O)CC)n2)cc1,"inconclusive: 16.4 µM [falling, partial curve, poor fit]",
COc1cccc(CNC(=O)CCS(=O)(=O)c2ccc3c(c2)CC(C)N3C(=O)C2CC2)c1 (centres undefined),"inconclusive: 1.03 µM [activator, partial curve, poor fit]",
CN1CCN(/N=C/c2ccc(C#N)cc2)CC1,"inconclusive: 7.31 µM [activator, partial curve]",
O=C(/C=C/c1ccco1)OCc1nnc(-c2ccc(Cl)cc2)o1,"inconclusive: 4.61 µM [activator, full curve, poor fit]",
Clc1ccc(Nc2ccc3ccccc3n2)cc1,"inconclusive: 23.1 µM [activator, single point]",
O=C(N/N=C/c1ccccc1Br)c1ccc(CSc2cccc3cccnc23)cc1,"inconclusive: 4.11 µM [falling, full curve, poor fit]",
CCCN(CC1CC1)c1nc(N)c2c(N)nc(OC)cc2c1C#N,"inconclusive: 29.1 µM [falling, single point]",

# In another format: results already given.
SMILES | Potency | activity change, negative = inhibition
COc1ccc(CN(C(=O)Cc2coc3ccc(C)cc23)C2CCS(=O)(=O)C2)cc1 (centres undefined) |  | inactive: -18.5%
CC(OC(=O)c1cc[n+]([O-])cc1)C(=O)Nc1ccc(Cl)cn1 (centres undefined) | inconclusive: 29.1 µM [activator, single point] | 
COc1ccc(OC)c(CCNC(=O)c2cc3c(=O)n(C)c4ccccc4c3n2C)c1 | inconclusive: 18.4 µM [falling, single point] | 
